Measurements: paper PMC5080334
No constants are given. Whether binding was seen depends on the method and setting. Where a sequence is shown, tags or fusion partners need not be part of it. Values belong to the molecule of their own block, whether it stands above or below them.

Protein sequences, listed by entry. Tags and fused reporters are not part of them.
UniProt Q9LE42: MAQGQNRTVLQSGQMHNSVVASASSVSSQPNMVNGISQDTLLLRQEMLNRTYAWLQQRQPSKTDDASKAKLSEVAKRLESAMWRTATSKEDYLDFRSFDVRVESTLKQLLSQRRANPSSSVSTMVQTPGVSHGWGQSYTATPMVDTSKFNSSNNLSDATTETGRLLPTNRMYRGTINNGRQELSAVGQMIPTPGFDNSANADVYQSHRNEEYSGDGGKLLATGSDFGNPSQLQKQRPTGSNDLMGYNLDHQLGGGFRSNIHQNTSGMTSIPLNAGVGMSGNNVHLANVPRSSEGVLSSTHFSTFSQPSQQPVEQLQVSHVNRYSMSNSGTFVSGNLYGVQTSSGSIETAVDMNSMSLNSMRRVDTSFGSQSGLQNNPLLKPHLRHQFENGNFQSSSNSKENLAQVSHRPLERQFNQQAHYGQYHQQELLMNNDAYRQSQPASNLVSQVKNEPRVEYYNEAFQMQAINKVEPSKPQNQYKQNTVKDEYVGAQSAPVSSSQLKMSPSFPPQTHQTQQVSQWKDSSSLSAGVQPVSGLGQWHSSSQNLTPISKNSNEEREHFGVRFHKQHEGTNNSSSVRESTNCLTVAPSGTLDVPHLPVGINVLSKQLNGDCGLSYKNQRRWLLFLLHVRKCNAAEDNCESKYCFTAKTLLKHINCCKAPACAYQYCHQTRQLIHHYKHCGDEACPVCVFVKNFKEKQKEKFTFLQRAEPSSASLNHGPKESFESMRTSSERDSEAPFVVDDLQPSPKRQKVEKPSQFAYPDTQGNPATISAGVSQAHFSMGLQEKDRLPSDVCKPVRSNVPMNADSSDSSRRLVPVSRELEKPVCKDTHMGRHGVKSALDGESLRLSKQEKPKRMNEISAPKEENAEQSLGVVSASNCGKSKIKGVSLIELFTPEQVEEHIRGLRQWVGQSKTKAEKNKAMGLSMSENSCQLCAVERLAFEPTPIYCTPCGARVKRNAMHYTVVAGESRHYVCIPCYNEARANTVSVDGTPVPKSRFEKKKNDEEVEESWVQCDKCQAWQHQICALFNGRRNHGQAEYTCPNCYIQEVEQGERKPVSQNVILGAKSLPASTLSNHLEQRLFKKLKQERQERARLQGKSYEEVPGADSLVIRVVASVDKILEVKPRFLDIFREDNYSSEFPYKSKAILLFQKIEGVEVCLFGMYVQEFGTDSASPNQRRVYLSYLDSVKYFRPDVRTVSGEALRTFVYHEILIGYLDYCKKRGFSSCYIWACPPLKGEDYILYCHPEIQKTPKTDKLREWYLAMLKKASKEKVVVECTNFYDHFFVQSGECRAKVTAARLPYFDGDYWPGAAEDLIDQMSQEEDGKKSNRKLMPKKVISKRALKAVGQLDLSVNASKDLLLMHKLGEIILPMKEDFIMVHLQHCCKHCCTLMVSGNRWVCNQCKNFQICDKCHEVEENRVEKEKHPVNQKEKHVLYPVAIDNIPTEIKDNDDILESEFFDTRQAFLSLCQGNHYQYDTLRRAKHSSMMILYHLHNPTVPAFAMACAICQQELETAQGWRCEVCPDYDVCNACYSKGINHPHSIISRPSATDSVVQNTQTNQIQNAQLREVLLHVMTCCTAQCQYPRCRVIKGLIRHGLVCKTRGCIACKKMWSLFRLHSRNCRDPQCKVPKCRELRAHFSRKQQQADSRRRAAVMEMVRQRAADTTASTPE

Molecular target: T1, UV … LOCUS 8 (Arabidopsis thaliana) (UniProt Q9FN03)
T1 sequence: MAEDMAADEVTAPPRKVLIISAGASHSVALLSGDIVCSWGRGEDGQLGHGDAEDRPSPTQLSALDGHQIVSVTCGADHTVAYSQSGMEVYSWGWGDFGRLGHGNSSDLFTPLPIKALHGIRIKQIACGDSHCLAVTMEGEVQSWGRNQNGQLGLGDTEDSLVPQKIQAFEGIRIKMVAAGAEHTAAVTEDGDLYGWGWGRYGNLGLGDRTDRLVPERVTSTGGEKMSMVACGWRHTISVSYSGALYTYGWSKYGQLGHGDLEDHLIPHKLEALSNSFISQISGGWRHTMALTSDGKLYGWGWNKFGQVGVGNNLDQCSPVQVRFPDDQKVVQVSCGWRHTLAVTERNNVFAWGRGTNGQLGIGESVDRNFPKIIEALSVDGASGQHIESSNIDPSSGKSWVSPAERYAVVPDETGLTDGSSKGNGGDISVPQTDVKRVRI
Experiment: two-hybrid; yeast two-hybrid, performed as described in Hayes et al. (2014); which protein was bait and whether the yeast was exposed to UV-B is not told for each pair

- binding: no binding
B1: Damaged DNA Binding Protein 1b (protein, UniProt O49552 1-1088)
chain: MSVWNYAVTAQKPTCVTHSCVGNFTSPQELNLIVAKSTRIEIHLLSPQGLQTILDVPLYGRIATMELFRPHGEAQDFLFVATERYKFCVLQWDYESSELITRAMGDVSDRIGRPTDNGQIGIIDPDCRVIGLHLYDGLFKVIPFDNKGQLKEAFNIRLEELQVLDIKFLYGCTKPTIAVLYQDNKDARHVKTYEVSLKDKNFVEGPWSQNNLDNGADLLIPVPSPLCGVLIIGEETIVYCSANAFKAIPIRPSITKAYGRVDLDGSRYLLGDHAGLIHLLVITHEKEKVTGLKIELLGETSIASSISYLDNAVVFVGSSYGDSQLIKLNLQPDAKGSYVEILEKYVNLGPIVDFCVVDLERQGQGQVVTCSGAYKDGSLRIVRNGIGINEQASVELQGIKGMWSLKSSIDEAFDTFLVVSFISETRILAMNIEDELEETEIEGFLSEVQTLFCHDAVYNQLVQVTSNSVRLVSSTTRELRNKWDAPAGFSVNVATANASQVLLATGGGHLVYLEIGDGTLTEVKHVLLEYEVSCLDINPIGDNPNYSQLAAVGMWTDISVRIFVLPDLTLITKEELGGEIIPRSVLLCAFEGISYLLCALGDGHLLNFQLDTSCGKLRDRKKVSLGTRPITLRTFSSKSATHVFAASDRPAVIYSNNKKLLYSNVNLKEVSHMCPFNSAAFPDSLAIAREGELTIGTIDDIQKLHIRTIPIGEHARRICHQEQTRTFAISCLRNEPSAEESESHFVRLLDAQSFEFLSSYPLDAFECGCSILSCSFTDDKNVYYCVGTAYVLPEENEPTKGRILVFIVEEGRLQLITEKETKGAVYSLNAFNGKLLASINQKIQLYKWMLRDDGTRELQSECGHHGHILALYVQTRGDFIAVGDLMKSISLLIYKHEEGAIEERARDYNANWMTAVEILNDDIYLGTDNCFNIFTVKKNNEGATDEERARMEVVGEYHIGEFVNRFRHGSLVMKLPDSDIGQIPTVIFGTVSGMIGVIASLPQEQYAFLEKLQTSLRKVIKGVGGLSHEQWRSFNNEKRTAEAKGYLDGDLIESFLDLSRGKMEEISKGMDVQVEELCKRVEELTRLH

- binding: no binding
B3: Histone Deacetylase 1 (enzyme, UniProt O22446 1-501)
chain: MDTGGNSLASGPDGVKRKVCYFYDPEVGNYYYGQGHPMKPHRIRMTHALLAHYGLLQHMQVLKPFPARDRDLCRFHADDYVSFLRSITPETQQDQIRQLKRFNVGEDCPVFDGLYSFCQTYAGGSVGGSVKLNHGLCDIAINWAGGLHHAKKCEASGFCYVNDIVLAILELLKQHERVLYVDIDIHHGDGVEEAFYATDRVMTVSFHKFGDYFPGTGHIQDIGYGSGKYYSLNVPLDDGIDDESYHLLFKPIMGKVMEIFRPGAVVLQCGADSLSGDRLGCFNLSIKGHAECVKFMRSFNVPLLLLGGGGYTIRNVARCWCYETGVALGVEVEDKMPEHEYYEYFGPDYTLHVAPSNMENKNSRQMLEEIRNDLLHNLSKLQHAPSVPFQERPPDTETPEVDEDQEDGDKRWDPDSDMDVDDDRKPIPSRVKREAVEPDTKDKDGLKGIMERGKGCEVEVDESGSTKVTGVNPVGVEEASVKMEEEGTNKGGAEQAFPPKT

- binding: no binding
B4: Damaged DNA binding 2 (protein, UniProt Q6NQ88 1-557)
chain: MSSTRSRRKRDPEIVIARDTDSELSSSEEEEEEEDNYPFSESEEEDEAVKNGGKIELEKNKAKGKAPITVKLIKKVCKVCKQPGHEAGFKGATYIDCPMKPCFLCKMPGHTTMSCPHRVVTDHGILPTSHRNTKNPIDFVFKRQLQPRIPPIKPKYVIPDQVHCAVIRYHSRRVTCLEFHPTKNNILLSGDKKGQIGVWDFGKVYEKNVYGNIHSVQVNNMRFSPTNDDMVYSASSDGTIGYTDLETGTSSTLLNLNPDGWQGANSWKMLYGMDINSEKGVVLAADNFGFLHMIDHRTNNSTGEPILIHKQGSKVCGLDCNPVQPELLLSCGNDHFARIWDMRKLQPKASLHDLAHKRVVNSAYFSPSSGTKILTTCQDNRIRIWDSIFGNLDLPSREIVHSNDFNRHLTPFKAEWDPKDTSESLIVIGRYISENYNGTALHPIDFIDASNGQLVAEVMDPNITTITPVNKLHPRDDVLASGSSRSLFIWRPQDNTEMVEEKKDKKIIICYGDSKKKGKKQKRGSDDEDDEDDIFSSKGKNIKVNKYQAKTTKKTKT

Further lines, the molecule ahead of its results:

Molecule: Histone Acetyltransferase 5 (from UniProt Q9LE42 1-1670) (enzyme)
- binding: no binding

B2: Damaged DNA Binding Protein 1a (protein, UniProt Q9M0V3 1-1088)
chain: MSSWNYVVTAHKPTSVTHSCVGNFTSPQELNLIVAKCTRIEIHLLTPQGLQPMLDVPIYGRIATLELFRPHGEAQDFLFIATERYKFCVLQWDPESSELITRAMGDVSDRIGRPTDNGQIGIIDPDCRLIGLHLYDGLFKVIPFDNKGQLKEAFNIRLEELQVLDIKFLFGCAKPTIAVLYQDNKDARHVKTYEVSLKDKDFVEGPWSQNSLDNGADLLIPVPPPLCGVLIIGEETIVYCSASAFKAIPIRPSITKAYGRVDVDGSRYLLGDHAGMIHLLVITHEKEKVTGLKIELLGETSIASTISYLDNAVVFVGSSYGDSQLVKLNLHPDAKGSYVEVLERYINLGPIVDFCVVDLERQGQGQVVTCSGAFKDGSLRVVRNGIGINEQASVELQGIKGMWSLKSSIDEAFDTFLVVSFISETRILAMNLEDELEETEIEGFLSQVQTLFCHDAVYNQLVQVTSNSVRLVSSTTRELRDEWHAPAGFTVNVATANASQVLLATGGGHLVYLEIGDGKLTEVQHALLEYEVSCLDINPIGDNPNYSQLAAVGMWTDISVRIFSLPELTLITKEQLGGEIIPRSVLLCAFEGISYLLCALGDGHLLNFQMDTTTGQLKDRKKVSLGTQPITLRTFSSKSATHVFAASDRPTVIYSSNKKLLYSNVNLKEVSHMCPFNSAAFPDSLAIAREGELTIGTIDDIQKLHIRTIPLGEHARRICHQEQTRTFGICSLGNQSNSEESEMHFVRLLDDQTFEFMSTYPLDSFEYGCSILSCSFTEDKNVYYCVGTAYVLPEENEPTKGRILVFIVEDGRLQLIAEKETKGAVYSLNAFNGKLLAAINQKIQLYKWMLRDDGTRELQSECGHHGHILALYVQTRGDFIVVGDLMKSISLLLYKHEEGAIEERARDYNANWMSAVEILDDDIYLGAENNFNLLTVKKNSEGATDEERGRLEVVGEYHLGEFVNRFRHGSLVMRLPDSEIGQIPTVIFGTVNGVIGVIASLPQEQYTFLEKLQSSLRKVIKGVGGLSHEQWRSFNNEKRTAEARNFLDGDLIESFLDLSRNKMEDISKSMNVQVEELCKRVEELTRLH
- binding: no binding
